Results from PubChem BioAssay AID314 (DTP/NCI, 2004).
The list does not hold the whole screen: its compounds were picked by chemical class. Not every dose and run of a compound is shown. T/C gives the treated animals as a percentage of the vehicle group. Some entries give survivors of the animals treated and no T/C: the source files T/C as zero there, which appears to mark a toxic dose or a test without result, not a measured value. Some survivor counts are full or nearly so, which does not show that the dose was tolerated: survival well below the control is almost never listed, so the zero probably covers shortened survival too. Survivors were counted at the toxicity check, usually on the fifth day, unless a day is given; later deaths do not show. Schedules are NCI's codes, read here as Q, the interval in days (D) or hours (H), X, the number of doses. For survival time, this PubChem deposit counts one and a half times the control or more as active, and values a quarter to a half above the control carry no call in these data; other NCI protocols may use other cut-offs.

Test system: DBA/2 mice, P1534 leukemia ip, survival T/C
Assay: NCI In Vivo Anticancer Drug Screen. Data for tumor model P1534 Leukemia (intraperitoneal) in DBA/2 mice
Conditions: T/C endpoint: mean survival time, schedule: Q01DX010 (ip), vehicle: saline, higher T/C = longer survival
Protocol: The antitumor activity of compounds was measured in mice bearing transplantable tumors. Survival or tumor size were measured and the results are expressed as the measurement made in the treated group (T) divided by the measurement made in the vehicle treated control group (C). The tumor model used in this assay is P1534 Leukemia (intraperitoneal) in DBA/2 mice

`Cc1[nH]c(=O)[nH]c(=O)c1N(CCCl)CCCl` was tested, and the T/C (dose: 0.5 mg/kg/injection) was 108 % of control, the T/C (dose: 1.0 mg/kg/injection) was 100 % of control and the T/C (dose: 2.0 mg/kg/injection) was 108 % of control. The survivor count (dose: 4.0 mg/kg/injection) was 5 of 6.
